In assay [1] the target is Smad3 (UniProt P84022). The assay is described as follows: yeast two-hybrid; list of Smad3 interactors.
Assay [2] has as its target LexA-Smad1 (full length Smad1 fused in frame to the LexA DNA binding domain (1-202) in pEG202) (UniProt P0A7C2). The assay is described as follows: yeast two-hybrid; list of Smad1 interactors.

Protein sequences, listed by entry. Tags and fused reporters are not part of them. Lines headed by an entry give the natural chain unless they say otherwise; changes in a name come on top.
UniProt P84022: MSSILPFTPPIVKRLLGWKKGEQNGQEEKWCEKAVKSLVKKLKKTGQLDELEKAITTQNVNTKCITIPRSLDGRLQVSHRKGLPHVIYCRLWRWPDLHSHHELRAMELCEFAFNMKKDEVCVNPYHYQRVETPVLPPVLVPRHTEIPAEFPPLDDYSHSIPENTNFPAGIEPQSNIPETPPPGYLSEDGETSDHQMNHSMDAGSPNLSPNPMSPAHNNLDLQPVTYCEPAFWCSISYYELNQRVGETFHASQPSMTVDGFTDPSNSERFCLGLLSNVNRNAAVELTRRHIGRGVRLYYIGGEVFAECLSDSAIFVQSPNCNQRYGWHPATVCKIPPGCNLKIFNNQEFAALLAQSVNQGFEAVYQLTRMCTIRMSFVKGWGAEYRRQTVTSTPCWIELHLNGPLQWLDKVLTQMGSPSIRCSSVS
UniProt P0A7C2: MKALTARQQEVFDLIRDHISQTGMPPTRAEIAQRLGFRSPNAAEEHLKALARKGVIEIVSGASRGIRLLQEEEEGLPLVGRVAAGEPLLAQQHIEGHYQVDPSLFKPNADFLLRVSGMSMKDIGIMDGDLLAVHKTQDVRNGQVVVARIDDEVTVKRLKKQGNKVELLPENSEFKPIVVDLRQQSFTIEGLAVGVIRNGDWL

Experimental findings from patent US6906179 are described below.

These are yes or no findings as the source states them, for the method shown. Some binding calls cover weakened binding; strength is not graded here.

B1: Clone S3+125 (protein)
chain: IRHEAAGICPKIIEAEESRMGLIIVNAWYGNFVNDKSRKSEKVKVIDVTVPCSAWVRTRSSSSRGLQAGLPGFYDPCVGEEKNLKVLYQFRGVLHQVMVLDSEALRIPKQSHRIDTDG
Consider B1, for which, in assay [1], the binding entry is “binds”.

B2: Clone S1+30 (protein)
chain: EFGTRRTKGIKVVGKWKEVKIDPNMFADGQMDDLVCFEELTDYQLVSPAKNSLQLSSQRKHPRERHKLFQKK
Take B2: the binding entry in assay [2] is reported as “binds”.
